IC50 data for 1 compound are collected here from patent US9849194B2, “Compositions and methods for imaging and treatment” (New York University, priority 2014, dated 2017).

For this experiment, the system named is HeLa cells. Put plainly: Inhibition of HeLa cell growth, CellTiter-Blue. The experiment is classed as cell-based. Conditions: 48 hours. The source says: In vitro cell viability assay. The effect of Dox and Dox-CB[7]NPs was studied using the CellTiter-Blue® Cell Viability assay (CTB, Promega) which measures the metabolic activity of the cells. The reduction of the reagent dye resazurin into fluorescent resorufin due provides a measure of cell viability. Resorufin diffuses out of the cell into the medium after its formation. The fluorescent intensity of medium will indicate the toxicity of the drug as only viable cells have the ability to breakdown resazurin and its breakdown is proportional to the number of viable cells present. To determine the anti-cancer properties and efficacy of Dox-CB[7]NPs in Dox delivery, inhibition of HeLA cell growth with Dox-CB[7]NPs and with free Dox was studied.
Two 96 well plate of HeLa cells (˜5000 cells/100 μL) were prepared and incubated at 37° C. After 24 hours, DMEM from one of the well plates was removed and replaced with various concentrations of Dox solution ([Dox]=5 μM, 10 μM, 15 μM, 20 μM, 30 μM, and 50 μM, respectively). […] The fluorescence emission of the medium at 590 nm was measured. […]
The percentage of cell inhibition and cell viability was calculated using the following formula: Viability (%)=[(Ftreated−Fblank)/(Fcontrol−Fblank)]×100 Inhibition (%)=100−viability (%)
(In general: The colour change of resazurin is a common sign of viable cells or microbes.)

pIC50: −log10 of the molar value.

On to `COc1cccc2c1C(=O)c1c(O)c3c(c(O)c1C2=O)C[C@@](O)(C(=O)CO)C[C@@H]3O[C@H]1C[C@H](N)[C@H](O)[C@H](C)O1` [Dox, Doxorubicin], for which the pIC50 (commonly the negative decadic logarithm of the IC50, by convention in mol/L) was 5.52.
